Some of the results follow.
Key:
Assay in all cases: log2 fold change, soluble protein after heating vs DMSO (PISA); higher = thermal stabilisation; K562 lysate, 10 uM; active = over 0.2 and 3.5 SD of the protein, either way, in both replicates (recomputed)
[1] = compound: CN1CCc2c(c3ccccc3n2Cc2ccc(C(=O)NO)cc2)C1 [Tubastatin A]
Outline: (§1)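 Soluble protein was defined as the supernatant remaining after 21,000xg for 90 min, following pooling of heated aliquots and adjustment to 0.5% NP-40 at 4°C. Before that, crude K562 extract at 1 mg/mL protein in PBS pH 7.4 with 1 mM MgCl2 was treated with 10 μM compound for 30 min and heated for 3 min across 48°C-58°C. Quantification used TMTpro 16plex LC-MS/MS with channel sums equalised, and values are log-two fold changes in thermal stability relative to solvent controls from duplicates.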

Protein sequences, listed by entry. Tags and fused reporters are not part of them. Lines headed by an entry give the natural chain unless they say otherwise; changes in a name come on top.
UniProt P78317: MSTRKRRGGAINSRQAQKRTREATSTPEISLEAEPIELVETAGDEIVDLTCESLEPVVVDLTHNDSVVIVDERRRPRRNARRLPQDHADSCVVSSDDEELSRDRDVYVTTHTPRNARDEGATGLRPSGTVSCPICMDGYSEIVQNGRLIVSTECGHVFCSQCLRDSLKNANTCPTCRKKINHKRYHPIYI
UniProt Q8TA86: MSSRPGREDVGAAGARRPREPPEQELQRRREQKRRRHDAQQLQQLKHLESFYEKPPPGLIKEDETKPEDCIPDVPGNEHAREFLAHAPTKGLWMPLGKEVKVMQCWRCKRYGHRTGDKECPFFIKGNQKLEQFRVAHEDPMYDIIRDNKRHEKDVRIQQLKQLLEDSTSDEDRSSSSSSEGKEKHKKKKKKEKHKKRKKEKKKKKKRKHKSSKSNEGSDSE
UniProt Q8WU17: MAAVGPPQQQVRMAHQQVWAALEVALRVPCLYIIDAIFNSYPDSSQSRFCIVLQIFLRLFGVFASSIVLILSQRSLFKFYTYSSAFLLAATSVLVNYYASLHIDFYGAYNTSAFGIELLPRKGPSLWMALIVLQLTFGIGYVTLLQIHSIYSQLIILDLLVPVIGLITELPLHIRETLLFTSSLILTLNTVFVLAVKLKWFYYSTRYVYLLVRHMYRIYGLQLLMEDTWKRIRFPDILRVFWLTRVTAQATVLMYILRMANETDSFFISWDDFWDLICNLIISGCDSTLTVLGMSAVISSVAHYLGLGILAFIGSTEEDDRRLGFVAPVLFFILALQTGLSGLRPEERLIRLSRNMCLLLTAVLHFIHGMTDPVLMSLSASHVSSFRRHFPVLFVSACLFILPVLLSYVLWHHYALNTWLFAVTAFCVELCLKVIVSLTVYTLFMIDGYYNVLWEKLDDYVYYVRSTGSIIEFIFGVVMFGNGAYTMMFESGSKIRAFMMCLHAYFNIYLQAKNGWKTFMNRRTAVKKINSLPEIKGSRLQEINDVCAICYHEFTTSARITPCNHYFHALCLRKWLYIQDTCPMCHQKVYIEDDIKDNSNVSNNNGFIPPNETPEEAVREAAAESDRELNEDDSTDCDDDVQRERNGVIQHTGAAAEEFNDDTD
UniProt Q96LT9: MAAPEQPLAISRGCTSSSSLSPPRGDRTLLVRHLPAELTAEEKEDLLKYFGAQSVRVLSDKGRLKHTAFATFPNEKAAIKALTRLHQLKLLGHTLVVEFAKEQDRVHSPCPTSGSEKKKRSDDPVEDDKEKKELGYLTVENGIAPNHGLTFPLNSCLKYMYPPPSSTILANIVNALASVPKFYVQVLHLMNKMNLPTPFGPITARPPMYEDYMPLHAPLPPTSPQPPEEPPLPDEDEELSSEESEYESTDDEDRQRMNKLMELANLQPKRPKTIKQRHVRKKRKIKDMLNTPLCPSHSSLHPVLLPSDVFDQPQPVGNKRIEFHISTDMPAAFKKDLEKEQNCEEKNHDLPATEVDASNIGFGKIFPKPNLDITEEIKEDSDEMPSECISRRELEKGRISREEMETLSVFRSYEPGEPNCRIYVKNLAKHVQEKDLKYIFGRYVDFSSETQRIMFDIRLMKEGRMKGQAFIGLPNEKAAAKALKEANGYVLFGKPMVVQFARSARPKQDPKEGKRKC
UniProt O43567: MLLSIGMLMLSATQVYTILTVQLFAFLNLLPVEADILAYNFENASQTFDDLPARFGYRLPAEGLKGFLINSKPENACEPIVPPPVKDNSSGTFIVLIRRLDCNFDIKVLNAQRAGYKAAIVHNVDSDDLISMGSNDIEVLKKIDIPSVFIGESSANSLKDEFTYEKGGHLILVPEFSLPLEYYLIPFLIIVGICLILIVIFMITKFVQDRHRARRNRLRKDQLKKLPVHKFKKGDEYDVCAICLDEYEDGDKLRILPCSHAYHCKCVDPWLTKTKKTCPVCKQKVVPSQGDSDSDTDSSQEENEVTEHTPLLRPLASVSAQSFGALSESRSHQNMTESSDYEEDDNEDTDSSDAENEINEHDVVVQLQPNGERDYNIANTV
UniProt Q8NCN4: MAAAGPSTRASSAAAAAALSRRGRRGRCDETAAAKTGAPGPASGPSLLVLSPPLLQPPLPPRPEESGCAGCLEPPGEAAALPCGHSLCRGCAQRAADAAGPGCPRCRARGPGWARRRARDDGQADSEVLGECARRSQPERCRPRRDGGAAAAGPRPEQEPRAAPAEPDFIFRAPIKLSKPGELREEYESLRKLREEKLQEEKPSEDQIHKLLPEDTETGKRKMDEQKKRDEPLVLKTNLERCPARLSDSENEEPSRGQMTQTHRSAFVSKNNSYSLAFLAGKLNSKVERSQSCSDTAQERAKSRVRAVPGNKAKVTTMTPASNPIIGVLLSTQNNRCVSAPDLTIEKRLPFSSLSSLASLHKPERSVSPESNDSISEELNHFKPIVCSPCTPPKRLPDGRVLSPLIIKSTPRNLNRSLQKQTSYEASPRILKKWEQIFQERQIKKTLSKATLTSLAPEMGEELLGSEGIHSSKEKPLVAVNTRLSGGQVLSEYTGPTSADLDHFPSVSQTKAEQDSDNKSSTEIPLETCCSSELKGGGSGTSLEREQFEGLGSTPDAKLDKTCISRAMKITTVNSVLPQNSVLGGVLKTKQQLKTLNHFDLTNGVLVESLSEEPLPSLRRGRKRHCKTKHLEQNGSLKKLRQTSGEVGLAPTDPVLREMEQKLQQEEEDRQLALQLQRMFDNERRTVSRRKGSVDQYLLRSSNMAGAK
UniProt Q86XS8: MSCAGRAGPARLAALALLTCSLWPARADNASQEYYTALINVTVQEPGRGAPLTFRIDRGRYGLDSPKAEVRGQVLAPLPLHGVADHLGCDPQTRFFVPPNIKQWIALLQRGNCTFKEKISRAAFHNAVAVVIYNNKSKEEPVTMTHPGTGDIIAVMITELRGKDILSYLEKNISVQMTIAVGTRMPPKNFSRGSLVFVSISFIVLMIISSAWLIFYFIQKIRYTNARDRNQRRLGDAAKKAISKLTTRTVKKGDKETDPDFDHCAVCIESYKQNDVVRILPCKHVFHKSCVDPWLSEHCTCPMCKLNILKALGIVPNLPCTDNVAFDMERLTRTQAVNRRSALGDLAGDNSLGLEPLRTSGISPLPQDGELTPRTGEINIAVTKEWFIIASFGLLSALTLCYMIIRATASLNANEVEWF
UniProt Q9H9Y2: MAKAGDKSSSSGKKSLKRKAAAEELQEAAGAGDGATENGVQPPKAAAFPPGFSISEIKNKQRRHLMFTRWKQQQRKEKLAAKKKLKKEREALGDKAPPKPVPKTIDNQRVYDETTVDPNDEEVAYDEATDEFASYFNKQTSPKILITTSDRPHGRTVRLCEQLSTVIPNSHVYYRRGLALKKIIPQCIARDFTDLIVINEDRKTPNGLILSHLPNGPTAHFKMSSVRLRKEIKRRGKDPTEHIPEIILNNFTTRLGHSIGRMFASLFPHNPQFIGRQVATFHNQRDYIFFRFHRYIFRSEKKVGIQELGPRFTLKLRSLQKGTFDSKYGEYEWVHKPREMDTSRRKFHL
UniProt Q9ULI2: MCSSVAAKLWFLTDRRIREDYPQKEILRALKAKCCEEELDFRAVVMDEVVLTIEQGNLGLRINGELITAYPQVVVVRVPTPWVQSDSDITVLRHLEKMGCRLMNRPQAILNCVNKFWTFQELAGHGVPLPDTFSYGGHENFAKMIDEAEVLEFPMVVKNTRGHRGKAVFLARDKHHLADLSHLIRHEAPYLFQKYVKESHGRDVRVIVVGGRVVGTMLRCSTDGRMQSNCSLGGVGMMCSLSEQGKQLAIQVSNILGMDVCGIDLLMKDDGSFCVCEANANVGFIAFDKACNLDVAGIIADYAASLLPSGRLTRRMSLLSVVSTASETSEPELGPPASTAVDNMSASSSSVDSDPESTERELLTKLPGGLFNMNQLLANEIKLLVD
UniProt Q96E14: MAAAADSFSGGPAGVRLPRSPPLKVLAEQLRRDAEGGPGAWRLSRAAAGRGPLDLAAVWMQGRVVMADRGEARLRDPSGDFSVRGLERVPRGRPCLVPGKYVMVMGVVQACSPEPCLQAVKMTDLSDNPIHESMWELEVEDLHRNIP
UniProt Q9H920: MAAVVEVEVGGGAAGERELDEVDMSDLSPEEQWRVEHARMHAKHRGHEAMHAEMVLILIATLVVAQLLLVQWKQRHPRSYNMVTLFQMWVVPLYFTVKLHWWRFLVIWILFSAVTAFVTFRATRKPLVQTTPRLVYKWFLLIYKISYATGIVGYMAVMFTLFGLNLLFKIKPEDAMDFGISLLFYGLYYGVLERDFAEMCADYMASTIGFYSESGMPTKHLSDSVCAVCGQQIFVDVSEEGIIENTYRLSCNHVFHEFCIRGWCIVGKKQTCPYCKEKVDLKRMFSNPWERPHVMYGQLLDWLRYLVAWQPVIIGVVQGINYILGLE
UniProt Q96GF1: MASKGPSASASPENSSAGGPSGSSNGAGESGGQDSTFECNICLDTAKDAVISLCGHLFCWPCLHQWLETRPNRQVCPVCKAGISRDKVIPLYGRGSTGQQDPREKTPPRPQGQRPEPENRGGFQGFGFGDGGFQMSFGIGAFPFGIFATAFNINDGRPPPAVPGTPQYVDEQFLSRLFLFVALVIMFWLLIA
UniProt Q96G75, whole entry, looked up: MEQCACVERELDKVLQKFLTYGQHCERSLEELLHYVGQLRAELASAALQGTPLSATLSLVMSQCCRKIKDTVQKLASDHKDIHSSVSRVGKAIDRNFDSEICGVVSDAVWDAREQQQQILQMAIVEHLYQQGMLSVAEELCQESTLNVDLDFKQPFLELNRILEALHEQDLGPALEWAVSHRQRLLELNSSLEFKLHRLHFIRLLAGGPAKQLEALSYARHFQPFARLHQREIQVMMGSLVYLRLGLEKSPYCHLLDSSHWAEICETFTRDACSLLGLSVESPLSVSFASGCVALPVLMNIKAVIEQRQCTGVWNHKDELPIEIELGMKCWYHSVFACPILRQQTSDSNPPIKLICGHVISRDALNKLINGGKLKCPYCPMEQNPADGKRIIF
UniProt Q96K19: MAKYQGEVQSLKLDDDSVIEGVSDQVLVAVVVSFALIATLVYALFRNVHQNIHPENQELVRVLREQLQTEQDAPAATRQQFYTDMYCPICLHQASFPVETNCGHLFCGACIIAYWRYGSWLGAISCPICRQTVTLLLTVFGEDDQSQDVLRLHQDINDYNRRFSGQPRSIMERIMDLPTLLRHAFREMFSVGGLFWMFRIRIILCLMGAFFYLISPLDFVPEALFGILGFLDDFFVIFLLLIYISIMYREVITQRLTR
UniProt Q8IUC4: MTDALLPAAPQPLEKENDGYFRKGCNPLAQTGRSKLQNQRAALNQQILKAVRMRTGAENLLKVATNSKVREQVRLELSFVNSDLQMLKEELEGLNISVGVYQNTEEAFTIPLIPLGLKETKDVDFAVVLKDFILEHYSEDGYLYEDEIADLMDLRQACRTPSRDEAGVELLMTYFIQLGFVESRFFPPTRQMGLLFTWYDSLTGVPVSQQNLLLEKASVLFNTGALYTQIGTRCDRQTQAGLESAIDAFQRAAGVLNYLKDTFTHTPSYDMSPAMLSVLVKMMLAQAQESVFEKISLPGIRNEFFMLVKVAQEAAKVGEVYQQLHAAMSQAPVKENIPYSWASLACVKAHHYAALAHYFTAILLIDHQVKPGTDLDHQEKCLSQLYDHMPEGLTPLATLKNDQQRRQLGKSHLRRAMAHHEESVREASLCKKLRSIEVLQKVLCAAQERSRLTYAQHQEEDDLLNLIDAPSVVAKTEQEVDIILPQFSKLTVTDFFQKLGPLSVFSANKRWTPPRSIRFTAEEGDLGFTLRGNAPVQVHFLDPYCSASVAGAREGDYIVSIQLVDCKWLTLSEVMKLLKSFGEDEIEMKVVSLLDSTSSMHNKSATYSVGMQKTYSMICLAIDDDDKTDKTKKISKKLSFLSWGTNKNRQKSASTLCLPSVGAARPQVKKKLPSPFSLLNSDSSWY
UniProt P34096: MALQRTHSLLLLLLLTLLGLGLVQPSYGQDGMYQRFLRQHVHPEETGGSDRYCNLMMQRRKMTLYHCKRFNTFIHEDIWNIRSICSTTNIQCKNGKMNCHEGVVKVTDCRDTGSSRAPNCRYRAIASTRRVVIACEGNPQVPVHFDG
UniProt Q9GZN7, whole entry, looked up: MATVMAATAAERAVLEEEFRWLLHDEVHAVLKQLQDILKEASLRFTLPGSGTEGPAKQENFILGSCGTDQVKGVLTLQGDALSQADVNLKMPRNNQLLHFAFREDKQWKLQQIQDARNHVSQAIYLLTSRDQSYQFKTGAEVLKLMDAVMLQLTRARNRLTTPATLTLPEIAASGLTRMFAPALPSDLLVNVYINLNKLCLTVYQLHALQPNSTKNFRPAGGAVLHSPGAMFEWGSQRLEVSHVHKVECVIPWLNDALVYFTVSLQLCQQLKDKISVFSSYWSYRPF

[2] = compound: CNc1nc(-c2ccc3c(N)n[nH]c3c2)cc(N2C[C@@H](C(=O)NC3CCCCC3)CC[C@H]2C)n1
Outline: as §1

[3] = compound: COC(=O)N[C@@H](C)CNc1nccc(-c2cn(C(C)C)nc2-c2cc(Cl)cc(NS(C)(=O)=O)c2F)n1 [encorafenib]
Outline: as §1

[4] = compound: COC(=O)[C@H](CCSC)NC(=O)C1=C(C=C(C=C1)NC[C@H](CS)N)C2=CC=CC=C2
Outline: as §1

[5] = compound: CN1CC[C@H](c2c(O)cc(O)c3c(=O)cc(-c4ccccc4Cl)oc23)[C@H](O)C1 [alvocidib]
Outline: as §1

[6] = compound: CNC(=O)c1ccc(Nc2ncc(C(F)(F)F)c(NCc3nccnc3N(C)S(C)(=O)=O)n2)cc1 [defactinib]
Outline: as §1

[7] = compound: COc1cc(Nc2ncc3c(n2)-c2ccc(Cl)cc2C(c2c(F)cccc2OC)=NC3)ccc1C(=O)O [alisertib]
Outline: as §1

[8] = compound: COc1cc2ncnc(Nc3ccc(F)c(Cl)c3)c2cc1OCCCN1CCOCC1 [gefitinib]
Outline: as §1

[9] = compound: CNC(=O)C1=CC=CC=C1NC2=NC(=NC=C2Cl)NC3=C(C=C(C=C3)N4CCOCC4)OC
Outline: as §1

[10] = compound: COc1cc2nc(-c3cc(F)ccc3O)nc(N[C@@H]3CNC[C@H]3C(C)(C)O)c2cc1OC
Outline: as §1

Measured: log2 fold change

RPL22L1 (UniProt Q6P5R6)
inactive: [1] 0.492 | [2] 0.845 | [3] 0.611 | [4] -0.024

RNF4 (UniProt P78317)
inactive: [5] 0.053 | [1] -0.229 | [6] -0.13 | [3] 0.099 | [4] -0.019 | [7] 0.151 | [8] -0.194

RP9 (UniProt Q8TA86)
inactive: [5] 0.191 | [9] -0.027 | [6] -0.061 | [2] -0.014 | [10] -0.032

RNF139 (UniProt Q8WU17)
inactive: [5] -0.053 | [9] -0.016 | [6] 0.117

RNPC3 (UniProt Q96LT9)
inactive: [5] 0.012 | [1] -0.099 | [9] -0.047 | [2] 0.082 | [7] 0.118 | [10] 0.056 | [8] -0.08

RNF13 (UniProt O43567)
inactive: [9] -0.05

RPL15, A0A2R8Y738
inactive: [9] -0.03 | [7] 0.225 | [10] 0.023 | [8] 0.288

RNF167 (UniProt Q9H6Y7)
inactive: [5] 0.006 | [2] -0.088 | [10] -0.048

RNF169 (UniProt Q8NCN4)
inactive: [1] -0.058 | [9] 0.047 | [2] 0.17

RNF130 (UniProt Q86XS8)
inactive: [5] -0.013 | [6] 0.159 | [2] 0.157

RPF1 (UniProt Q9H9Y2)
inactive: [1] -0.093 | [10] 0.027

RIMKLB (UniProt Q9ULI2)
inactive: [1] -0.283

RPL32 (UniProt D3YTI8)
inactive: [9] -0.068 | [2] 0.079 | [10] -0.016

RMI2 (UniProt Q96E14)
inactive: [1] -0.146 | [9] -0.074 | [6] 0.265 | [2] 0.007 | [3] -0.054 | [4] -0.021

RLF (UniProt Q13129)
inactive: [5] 0.047 | [2] -0.003 | [7] 0.18 | [10] -0.066 | [8] 0.13

RNF121 (UniProt Q9H920)
inactive: [5] -0.04 | [1] -0.026 | [9] 0.028 | [2] -0.118 | [7] 0.089 | [10] -0.022 | [8] 0.05

RNF185 (UniProt Q96GF1)
inactive: [5] -0.012 | [9] 0.092 | [7] 0.032 | [10] 0.016 | [8] -0.003

RMND5B (UniProt Q96G75)
inactive: [5] -0.021 | [6] 0.005

RNF170 (UniProt Q96K19)
inactive: [5] 0.371 | [9] -0.137 | [6] 0.027 | [2] -0.067 | [7] 0.055 | [10] 0.07 | [8] 0.037

Looked up one by one from the list above (two):
RNF185 (UniProt Q96GF1)
inactive: [5] -0.012 | [9] 0.092 | [7] 0.032 | [10] 0.016 | [8] -0.003

RMND5B (UniProt Q96G75)
inactive: [5] -0.021 | [6] 0.005

Going on with the list:

RHPN2 (UniProt Q8IUC4)
inactive: [1] -0.016 | [9] 0.041 | [3] -0.09 | [4] 0.127 | [7] -0.063 | [10] 0.031 | [8] 0.205

RNASE4 (UniProt P34096)
inactive: [1] 0.053 | [9] 0.06 | [6] -0.039 | [2] -0.091 | [3] -0.036 | [4] 0.126 | [7] -0.055 | [10] 0.087 | [8] -0.012

ROGDI (UniProt Q9GZN7)
inactive: [5] 0.095 | [1] -0.133 | [9] -0.145 | [2] 0.333 | [7] -0.019 | [10] -0.059 | [8] 0.1

ROS1 (UniProt P08922)
inactive: [5] -0.179 | [1] 0.148 | [6] -0.175 | [2] -0.051 | [3] -0.013 | [4] 0.018 | [7] 0.104 | [10] 0.031 | [8] -0.051

From the supplement of paper PMC10849652
